Consider five molecules from PMC10864363.

Chains of the proteins cited; added tags and fusions are not shown.
UniProt Q2MHE5: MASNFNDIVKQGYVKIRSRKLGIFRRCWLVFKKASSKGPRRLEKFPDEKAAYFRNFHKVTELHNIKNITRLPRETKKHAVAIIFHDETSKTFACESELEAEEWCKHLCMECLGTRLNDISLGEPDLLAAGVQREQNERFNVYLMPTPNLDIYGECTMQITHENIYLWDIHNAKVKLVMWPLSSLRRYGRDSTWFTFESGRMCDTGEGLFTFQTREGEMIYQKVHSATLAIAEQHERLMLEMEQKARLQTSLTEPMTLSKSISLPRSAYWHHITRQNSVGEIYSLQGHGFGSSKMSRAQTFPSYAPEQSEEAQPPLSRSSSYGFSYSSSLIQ
UniProt Q9JHU4: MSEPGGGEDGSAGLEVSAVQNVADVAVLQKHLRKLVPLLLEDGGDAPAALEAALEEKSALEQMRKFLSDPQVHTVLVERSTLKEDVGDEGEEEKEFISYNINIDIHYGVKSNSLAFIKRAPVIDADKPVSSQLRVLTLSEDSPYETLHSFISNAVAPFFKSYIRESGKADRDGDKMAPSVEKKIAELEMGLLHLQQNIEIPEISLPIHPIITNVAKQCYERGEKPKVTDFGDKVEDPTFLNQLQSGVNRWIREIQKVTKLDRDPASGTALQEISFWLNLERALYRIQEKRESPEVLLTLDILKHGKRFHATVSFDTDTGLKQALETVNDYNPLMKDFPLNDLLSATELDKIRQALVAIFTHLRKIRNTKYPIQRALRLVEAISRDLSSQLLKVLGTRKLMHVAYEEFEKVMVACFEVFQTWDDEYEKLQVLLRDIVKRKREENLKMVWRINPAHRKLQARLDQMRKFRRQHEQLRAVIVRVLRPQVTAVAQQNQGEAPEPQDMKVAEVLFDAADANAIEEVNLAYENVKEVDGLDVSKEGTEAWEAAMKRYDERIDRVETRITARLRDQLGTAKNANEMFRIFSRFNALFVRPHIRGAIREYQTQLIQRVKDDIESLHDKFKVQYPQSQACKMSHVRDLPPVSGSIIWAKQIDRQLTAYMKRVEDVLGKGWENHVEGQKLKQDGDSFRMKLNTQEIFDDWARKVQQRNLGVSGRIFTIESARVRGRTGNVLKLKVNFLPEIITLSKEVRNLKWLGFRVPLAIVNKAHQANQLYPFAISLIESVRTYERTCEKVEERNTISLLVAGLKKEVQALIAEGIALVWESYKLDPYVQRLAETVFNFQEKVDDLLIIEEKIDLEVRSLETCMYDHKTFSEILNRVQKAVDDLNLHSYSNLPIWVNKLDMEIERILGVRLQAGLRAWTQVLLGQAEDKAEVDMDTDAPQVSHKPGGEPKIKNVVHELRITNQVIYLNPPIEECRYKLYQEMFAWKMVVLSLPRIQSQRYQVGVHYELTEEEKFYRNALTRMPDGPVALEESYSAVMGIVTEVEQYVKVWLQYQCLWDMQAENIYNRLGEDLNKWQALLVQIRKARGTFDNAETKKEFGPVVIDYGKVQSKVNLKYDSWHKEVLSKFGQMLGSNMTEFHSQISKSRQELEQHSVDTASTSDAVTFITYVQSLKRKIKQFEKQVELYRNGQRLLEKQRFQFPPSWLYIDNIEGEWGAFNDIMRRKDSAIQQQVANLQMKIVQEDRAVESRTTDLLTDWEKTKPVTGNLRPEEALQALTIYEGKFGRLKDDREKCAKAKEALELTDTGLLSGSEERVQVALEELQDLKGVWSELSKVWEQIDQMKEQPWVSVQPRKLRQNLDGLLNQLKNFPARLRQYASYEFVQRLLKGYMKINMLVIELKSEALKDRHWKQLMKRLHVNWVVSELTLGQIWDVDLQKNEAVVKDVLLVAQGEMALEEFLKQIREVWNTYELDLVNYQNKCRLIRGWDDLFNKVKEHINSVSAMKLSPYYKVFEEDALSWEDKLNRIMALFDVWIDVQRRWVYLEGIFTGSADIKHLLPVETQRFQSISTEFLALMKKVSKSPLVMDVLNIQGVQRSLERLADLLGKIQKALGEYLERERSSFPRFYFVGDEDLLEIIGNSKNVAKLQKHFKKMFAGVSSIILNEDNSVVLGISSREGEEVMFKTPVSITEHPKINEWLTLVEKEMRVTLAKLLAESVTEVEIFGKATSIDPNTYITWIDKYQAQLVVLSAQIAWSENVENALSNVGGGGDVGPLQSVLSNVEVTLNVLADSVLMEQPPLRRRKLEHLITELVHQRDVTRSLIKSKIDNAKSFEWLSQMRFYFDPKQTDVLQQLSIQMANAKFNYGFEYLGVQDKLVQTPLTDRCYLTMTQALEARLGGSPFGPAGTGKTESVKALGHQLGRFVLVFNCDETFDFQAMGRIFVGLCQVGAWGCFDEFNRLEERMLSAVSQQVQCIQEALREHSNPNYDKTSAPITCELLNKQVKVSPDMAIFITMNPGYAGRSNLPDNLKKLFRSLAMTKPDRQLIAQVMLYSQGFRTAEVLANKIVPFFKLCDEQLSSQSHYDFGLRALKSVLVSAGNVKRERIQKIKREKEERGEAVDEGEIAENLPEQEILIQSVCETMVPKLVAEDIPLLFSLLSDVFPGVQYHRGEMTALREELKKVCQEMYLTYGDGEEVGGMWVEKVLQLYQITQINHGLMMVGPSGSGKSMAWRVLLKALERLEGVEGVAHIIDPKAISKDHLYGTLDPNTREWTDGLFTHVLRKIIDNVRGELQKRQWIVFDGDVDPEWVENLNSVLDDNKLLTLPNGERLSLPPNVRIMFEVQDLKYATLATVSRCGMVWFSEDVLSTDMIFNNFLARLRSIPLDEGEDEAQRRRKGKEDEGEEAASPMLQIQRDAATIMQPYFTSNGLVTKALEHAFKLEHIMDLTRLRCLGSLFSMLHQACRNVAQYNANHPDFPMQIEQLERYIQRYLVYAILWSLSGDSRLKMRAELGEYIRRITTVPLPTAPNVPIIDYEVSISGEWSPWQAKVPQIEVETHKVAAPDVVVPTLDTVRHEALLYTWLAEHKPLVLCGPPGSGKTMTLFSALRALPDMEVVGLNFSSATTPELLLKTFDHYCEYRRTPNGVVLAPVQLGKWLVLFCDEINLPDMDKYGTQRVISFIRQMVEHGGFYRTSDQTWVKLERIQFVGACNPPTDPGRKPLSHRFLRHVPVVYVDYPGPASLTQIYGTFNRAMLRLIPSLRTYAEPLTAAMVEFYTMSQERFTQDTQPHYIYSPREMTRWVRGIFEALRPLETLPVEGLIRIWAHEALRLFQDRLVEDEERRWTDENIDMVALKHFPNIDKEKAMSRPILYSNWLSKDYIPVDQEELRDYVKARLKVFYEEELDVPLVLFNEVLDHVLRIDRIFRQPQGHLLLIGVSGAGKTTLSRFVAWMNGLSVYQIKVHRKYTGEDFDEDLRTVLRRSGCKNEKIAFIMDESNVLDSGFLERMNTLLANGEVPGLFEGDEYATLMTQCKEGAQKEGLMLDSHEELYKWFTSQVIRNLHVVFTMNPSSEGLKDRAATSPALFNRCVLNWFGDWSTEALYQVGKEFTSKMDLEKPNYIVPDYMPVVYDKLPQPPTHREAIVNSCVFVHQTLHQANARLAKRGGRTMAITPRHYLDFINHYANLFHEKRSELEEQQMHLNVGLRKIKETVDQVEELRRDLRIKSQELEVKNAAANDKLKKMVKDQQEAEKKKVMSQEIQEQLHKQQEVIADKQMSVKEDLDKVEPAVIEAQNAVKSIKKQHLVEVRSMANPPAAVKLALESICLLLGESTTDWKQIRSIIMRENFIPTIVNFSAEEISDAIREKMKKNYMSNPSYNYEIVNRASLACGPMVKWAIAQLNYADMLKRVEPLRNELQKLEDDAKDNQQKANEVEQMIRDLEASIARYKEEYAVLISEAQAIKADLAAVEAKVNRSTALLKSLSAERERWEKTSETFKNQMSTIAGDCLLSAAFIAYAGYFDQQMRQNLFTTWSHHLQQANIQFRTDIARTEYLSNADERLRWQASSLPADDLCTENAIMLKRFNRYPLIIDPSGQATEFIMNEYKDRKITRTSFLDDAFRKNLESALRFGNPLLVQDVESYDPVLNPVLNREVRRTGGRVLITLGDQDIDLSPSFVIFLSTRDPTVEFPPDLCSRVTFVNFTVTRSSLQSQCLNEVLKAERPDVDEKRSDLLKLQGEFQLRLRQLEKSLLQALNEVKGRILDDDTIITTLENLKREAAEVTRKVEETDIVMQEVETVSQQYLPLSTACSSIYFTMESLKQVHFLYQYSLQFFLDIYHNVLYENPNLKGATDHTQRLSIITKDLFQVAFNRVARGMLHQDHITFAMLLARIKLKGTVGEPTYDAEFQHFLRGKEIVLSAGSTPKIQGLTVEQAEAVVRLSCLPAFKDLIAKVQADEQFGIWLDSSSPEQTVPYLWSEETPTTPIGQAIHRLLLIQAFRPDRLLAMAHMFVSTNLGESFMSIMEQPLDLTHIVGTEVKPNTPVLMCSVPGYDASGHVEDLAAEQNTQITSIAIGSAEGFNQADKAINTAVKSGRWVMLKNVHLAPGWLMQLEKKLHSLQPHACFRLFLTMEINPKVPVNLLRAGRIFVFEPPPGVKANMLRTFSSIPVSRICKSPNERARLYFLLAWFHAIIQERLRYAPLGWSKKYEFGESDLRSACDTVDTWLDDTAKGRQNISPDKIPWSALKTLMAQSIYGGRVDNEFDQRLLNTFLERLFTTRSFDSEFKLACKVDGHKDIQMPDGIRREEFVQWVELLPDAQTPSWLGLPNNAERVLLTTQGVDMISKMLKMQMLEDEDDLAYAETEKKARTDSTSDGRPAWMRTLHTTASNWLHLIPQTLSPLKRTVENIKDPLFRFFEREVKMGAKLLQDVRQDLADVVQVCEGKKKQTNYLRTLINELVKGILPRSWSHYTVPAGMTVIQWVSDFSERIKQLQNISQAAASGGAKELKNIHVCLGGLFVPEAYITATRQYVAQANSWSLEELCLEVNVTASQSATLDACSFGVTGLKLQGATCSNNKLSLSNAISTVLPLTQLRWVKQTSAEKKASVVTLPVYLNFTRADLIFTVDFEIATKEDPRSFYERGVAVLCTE
UniProt P10637: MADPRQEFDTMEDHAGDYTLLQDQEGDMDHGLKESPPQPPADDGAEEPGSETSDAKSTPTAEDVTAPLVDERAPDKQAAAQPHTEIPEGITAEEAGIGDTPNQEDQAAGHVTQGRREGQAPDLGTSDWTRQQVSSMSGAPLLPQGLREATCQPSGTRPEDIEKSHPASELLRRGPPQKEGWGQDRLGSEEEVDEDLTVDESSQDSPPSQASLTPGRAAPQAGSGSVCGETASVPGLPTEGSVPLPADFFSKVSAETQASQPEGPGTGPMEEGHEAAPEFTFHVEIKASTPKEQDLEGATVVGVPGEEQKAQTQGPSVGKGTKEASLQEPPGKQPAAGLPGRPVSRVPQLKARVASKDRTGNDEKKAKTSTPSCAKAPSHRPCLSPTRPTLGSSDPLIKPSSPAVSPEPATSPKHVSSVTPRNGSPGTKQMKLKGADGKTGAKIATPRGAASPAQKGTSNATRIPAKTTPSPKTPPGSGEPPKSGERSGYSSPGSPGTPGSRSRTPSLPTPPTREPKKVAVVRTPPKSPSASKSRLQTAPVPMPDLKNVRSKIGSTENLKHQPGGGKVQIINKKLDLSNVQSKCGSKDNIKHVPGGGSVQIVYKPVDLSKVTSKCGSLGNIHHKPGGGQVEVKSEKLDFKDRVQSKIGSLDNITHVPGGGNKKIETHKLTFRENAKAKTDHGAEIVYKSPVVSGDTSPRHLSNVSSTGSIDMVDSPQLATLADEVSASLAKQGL

B1: brain acid soluble protein 1 (Basp1) (protein, UniProt Q91XV3 1-226)
chain: MGGKLSKKKKGYNVNDEKAKDKDKKAEGAGTEEEGTPKESEPQAAADATEVKESTEEKPKDAADGEAKAEEKEADKAAAAKEEAPKAEPEKSEGAAEEQPEPAPAPEQEAAAPGPAAGGEAPKAGEASAESTGAADGAAPEEGEAKKTEAPAAAGPEAKSDAAPAASDSKPSSAEPAPSSKETPAASEAPSSAAKAPAPAAPAAAEPQAEAPAAAASSEQSVAVKE
B2: drebrin 1 (DBN1) (protein, UniProt Q9QXS6 1-706)
chain: MAGVSFSGHRLELLAAYEEVIREESAADWALYTYEDGSDDLKLAASGEGGLQELSGHFENQKVMYGFCSVKDSQAALPKYVLINWVGEDVPDARKCACASHVAKVAEFFQGVDVIVNASSVEDIDAGAIGQRLSNGLARLSSPVLHRLRLREDENAEPVGTTYQKTDAAVEMKRINREQFWEQAKKEEELRKEEERKKALDARLRFEQERMEQERQEQEERERRYREREQQIEEHRRKQQSLEAEEAKRRLKEQSIFGDQRDEEEESQMKKSESEVEEAAAIIAQRPDNPREFFRQQERVASASGGSCDAPAPAPFNHRPGRPYCPFIKASDSGPSSSSSSSSSPPRTPFPYITCHRTPNLSSSLPCSHLDSHRRMAPTPIPTRSPSDSSTASTPIAEQIERALDEVTSSQPPPPPPPPPPTQEAQETTPSLDEELSKEAKVTAAPEVWAGCAAEPPQAQEPPLLQSSPLEDSMCTESPEQAALAAPAEPAASVTSVADVHAADTIETTTATTDTTIANNVTPAAASLIDLWPGNGEEASTLQAEPRVPTPPSGAEASLAEVPLLNEAAQEPLPPVGEGCANLLNFDELPEPPATFCDPEEEVGETLAASQVLTMPSALEEVDQVLEQELEPEPHLLTNGETTQKEGTQASEGYFSQSQEEEFAQSEEPCAKVPPPVFYNKPPEIDITCWDADPVPEEEEGFEGGD

No constants are given. Whether binding was seen depends on the method and setting. Binding seen in cells or lysates may run through a third protein. These calls come from enrichment with a bait or labelling near it, and not all partners need be listed.

This assay concerns the target GST-Full-length-DOK6 (UniProt Q2MHE5). The assay is described as follows: affinity purification with mass spectrometry; GST-DOK6 held on glutathione Sepharose beads, incubated with E18.5 mouse forebrain lysate overnight at 4 °C; GST alone as negative control; SDS-PAGE, silver staining, mass spectrometry; only the target purified.
As for “cytoplasmic dynein 1 heavy chain 1 (Dync1h1) (from UniProt Q9JHU4 1-4644)”, the binding result is reported as “binds”.
With “microtubule-associated protein 1B (MAP1B/MAP5) (from UniProt P14873 1-2464)”, the binding result is reported as “binds”.
As to “microtubule-associated protein tau (MAPT) (from UniProt P10637 1-733)”, the binding result was “binds”.
Consider B1, for which the binding result is “binds”.
For B2, the binding entry is “binds”.
